Measurements reported in the supplement of paper PMC7411640.
Structures can show the parent of a compound that is named as a salt. Some of the results follow. Single values are uncertain here, since repeats match poorly.

System: MDA-MB-468
Assay: phospho-S6 immunofluorescence (DAPI-normalised), per-plate z-score; higher = higher phospho-S6 signal (less pathway suppression)
Conditions: 24 h
Description: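 GPCR-targeted compound library (MedChemExpress HY-L006) tested on MDA-MB-468 PTEN-null TNBC cells in 384-well plates at 0.1, 1 or 10 uM, combined with vehicle, GDC0941 450 nM or lapatinib 1 uM, for 24 h. Phospho-S6 (S240/244) immunofluorescence normalised to DAPI and expressed as a per-plate z-score; values are the mean of biological triplicates.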

[1] = compound 0.1 µM, co-treatment: GDC0941 450 nM
[2] = compound 0.1 µM, co-treatment: lapatinib 1 uM
[3] = compound 0.1 µM, co-treatment: vehicle
[4] = compound 1 µM, co-treatment: GDC0941 450 nM
[5] = compound 1 µM, co-treatment: lapatinib 1 uM
[6] = compound 1 µM, co-treatment: vehicle
[7] = compound 10 µM, co-treatment: GDC0941 450 nM
[8] = compound 10 µM, co-treatment: lapatinib 1 uM
[9] = compound 10 µM, co-treatment: vehicle

Row | Compound | phospho-S6 immunofluorescence (z-score) [1] | phospho-S6 immunofluorescence (z-score) [2] | phospho-S6 immunofluorescence (z-score) [3] | phospho-S6 immunofluorescence (z-score) [4] | phospho-S6 immunofluorescence (z-score) [5] | phospho-S6 immunofluorescence (z-score) [6] | phospho-S6 immunofluorescence (z-score) [7] | phospho-S6 immunofluorescence (z-score) [8] | phospho-S6 immunofluorescence (z-score) [9]
1 | CC(NCCc1ccc(O)cc1)C(O)c1ccc(O)cc1 (stereo not given) [Ritodrine (hydrochloride)] | -0.25 | 0.64 | 0.55 | -0.13 | 0.72 | 0.18 | -0.01 | 1.26 | 0.06
2 | CC(C)(Cc1ccc2ccccc2c1)NC[C@@H](O)COc1cccc(Cl)c1C#N | -0.5 | -0.11 | -0.99 | -2.19 | -5.25 | -1.49 | -3.37 | -8.76 | -10.1
3 | COc1cc2c(cc1OC)-c1cc3ccc4c(c3c[n+]1CC2)OCO4 [Epiberberine (chloride)] | 1.14 | 0.5 | 0.24 | 1.14 | 0 | 0.8 | -0.39 | 0.22 | 1.66
4 | CN1CCc2cc(Cl)c(O)cc2[C@@H](c2ccccc2)C1 | -0.08 | 0.55 | 0.46 | 0.12 | -0.31 | 0.11 | -0.98 | -1.63 | 0.1
5 | CC1(C)O[C@@H]2[C@@H](CO[C@@]3(COS(N)(=O)=O)OC(C)(C)O[C@@H]23)O1 [Topiramate] | 0.47 | -1.35 | 0.15 | -0.69 | -0.4 | -0.41 | -0.24 | 0.19 | -0.31
6 | N#Cc1ccc2[nH]cc(CCCCN3CCN(c4ccc5oc(C(N)=O)cc5c4)CC3)c2c1 [Vilazodone (Hydrochloride)] | -0.94 | 0.69 | -0.15 | 0.14 | -0.82 | -0.09 | -0.01 | -0.76 | 0.65
7 | Nc1nc2c(cnn2CCc2ccccc2)c2nc(-c3ccco3)nn12 | -1.69 | 3.31 | 3.08 | -1.81 | 4.87 | 5.33 | -0.2 | 1.51 | 3.1
8 | Cc1noc(-c2ccc(-c3ccc(CC(=O)O)cc3)cc2)c1NC(=O)O[C@H](C)c1ccccc1 | 1.49 | 1.84 | 0.67 | 1.26 | 1.24 | 0.68 | 0.62 | 1.57 | 0.63
9 | OC(CNCC(O)C1CCc2cc(F)ccc2O1)C1CCc2cc(F)ccc2O1 (stereo not given) [Nebivolol (hydrochloride)] | -0.98 | -1.23 | -0.74 | -0.53 | -1.32 | -0.19 | -2.5 | -3.76 | -2.22
10 | CC(=O)N[C@H](Cc1ccc2ccccc2c1)C(=O)N[C@H](Cc1ccc(Cl)cc1)C(=O)N[C@H](Cc1cccnc1)C(=O)N[C@@H](CO)C(=O)N(C)[C@@H](Cc1ccc(O)cc1)C(=O)N[C@H](CC(N)=O)C(=O)N[C@@H](CC(C)C)C(=O)N[C@@H](CCCCNC(C)C)C(=O)N1CCC[C@H]1C(=O)N[C@H](C)C(N)=O [Abarelix] | -1.23 | -1.63 | -2.18 | -0.88 | 0.85 | -1.04 | 0.77 | 0.65 | -0.38
11 | Cc1cccc(C#Cc2ccccc2)n1 [MPEP (Hydrochloride)] | -0.69 | -0.63 | -1.07 | -1.33 | -0.82 | -1.21 | -0.92 | 0.68 | -0.14
12 | OCCOCCN1CCN(C2=Nc3ccccc3Sc3ccccc32)CC1 [Quetiapine] | 1.6 | 0.46 | 1.37 | 1.2 | 1.13 | 0.05 | 0.95 | -0.32 | 0.64
13 | CCCC(=O)Nc1ccc(OCC(O)CNC(C)C)c(C(C)=O)c1 (stereo not given) [Acebutolol (hydrochloride)] | 1.4 | 0.39 | 0.53 | 1.4 | 0.7 | -0.34 | 1.02 | 0.15 | -0.08
14 | CN1CCN(c2cc(-c3ccccc3)nc(N)n2)CC1 | 0.92 | 0.56 | -0.46 | 0.11 | 0.29 | 0.36 | 0.39 | 0.06 | 1.14
15 | O=C(CCCN1CCN(c2ccccn2)CC1)c1ccc(F)cc1 [Azaperone] | 0.85 | -0.35 | 0.06 | 1.35 | 0.01 | 0.67 | 0.08 | 0.77 | 0.8
16 | Nc1nc(NCCc2ccc(O)cc2)nc2nc(-c3ccco3)nn12 | -1.12 | 0.66 | 1.88 | -0.21 | 1.98 | 1.38 | -1.88 | 0.67 | 1.01
17 | CN1CCc2c(c3ccccc3n2Cc2ccccc2)C1 [Mebhydrolin (napadisylate)] | 0.08 | 0.71 | 0.16 | 0.78 | 0.36 | 0.09 | -0.29 | -1.06 | 0.64
18 | CC(COc1ccccc1)N(CCCl)Cc1ccccc1 (stereo not given) [Phenoxybenzamine (hydrochloride)] | -0.05 | -1.29 | 0.28 | 0.5 | 0.82 | -0.12 | 0.33 | -0.04 | 0.39

Row | Compound | phospho-S6 immunofluorescence (z-score) [1] | phospho-S6 immunofluorescence (z-score) [2] | phospho-S6 immunofluorescence (z-score) [3] | phospho-S6 immunofluorescence (z-score) [4] | phospho-S6 immunofluorescence (z-score) [5] | phospho-S6 immunofluorescence (z-score) [6] | phospho-S6 immunofluorescence (z-score) [7] | phospho-S6 immunofluorescence (z-score) [8] | phospho-S6 immunofluorescence (z-score) [9]
19 | O=C1O[C@]2(CC[C@H](C(=O)Nc3ccn(-c4ccccc4F)n3)CC2)c2cnccc21 | -0.22 | -0.1 | 0.06 | 0.1 | -0.18 | 0 | 0.73 | -0.47 | 0.3
20 | CC(C)NCC(O)c1ccc(O)c(O)c1 (stereo not given) [Isoprenaline (hydrochloride)] | 0.91 | 2.52 | 1.15 | 0.47 | 2.64 | 1.48 | 0.63 | 2.74 | 1.65
21 | CCc1c(C(=O)NCCc2ccc(N3CCCCC3)cc2)[nH]c2ccc(Cl)cc12 | -0.41 | 0.08 | 0.79 | 0.15 | 0.27 | -0.03 | -1.02 | -0.3 | 0.27
22 | O=C1CCc2ccc(OCCCCN3CCN(c4cccc(Cl)c4Cl)CC3)cc2N1 [Aripiprazole] | 0.2 | 1.79 | 0.78 | 0.08 | 0.1 | 0.63 | -3.14 | -5.16 | -3.2
23 | O=c1ccn([C@@H]2O[C@H](COP(=O)(O)OP(=O)(O)OP(=O)(O)OP(=O)(O)OC[C@H]3O[C@@H](n4ccc(=O)[nH]c4=O)[C@H](O)[C@@H]3O)[C@@H](O)[C@H]2O)c(=O)[nH]1 [Diquafosol (tetrasodium)] | -1.44 | -1.16 | -1.05 | -0.95 | 1.38 | -1.45 | 0.01 | 0.71 | -0.38
24 | CCCCc1nc(Cl)c(CO)n1Cc1ccc(-c2ccccc2-c2nnn[nH]2)cc1 [Losartan (potassium)] | 0.42 | 1.47 | 0.96 | 0.87 | 0.07 | 0.71 | 0.74 | 0.83 | 0.81
25 | Cc1ccc(Sc2ccccc2N2CCNCC2)c(C)c1 [Vortioxetine] | -0.46 | -0.89 | -1.35 | -0.84 | -1.59 | -0.53 | -5.05 | -7.7 | -6.93
26 | CCCCC[C@H](O)/C=C/[C@@H]1[C@@H](C/C=C\CCCC(=O)O)[C@@H](O)C[C@H]1O [Dinoprost (tromethamine salt)] | 0.02 | -0.35 | 0.18 | 1.35 | -0.45 | 0.57 | -0.07 | -0.14 | 0.98
27 | COc1ccc(CCN2CCN(CCCc3ccccc3)CC2)cc1OC [SA4503 (dihydrochloride)] | -0.53 | -0.23 | -0.24 | -0.16 | 0.52 | 0.2 | 0.13 | -0.13 | -0.47
28 | Oc1cc2c(cc1O)C(c1ccccc1)CNCC2 (stereo not given) | 0.22 | 0.66 | -0.01 | 1.17 | -0.26 | 0.97 | 0.77 | 0.35 | 1.06
29 | CCn1c(=O)c2c(nc(/C=C/c3ccc(OC)c(OC)c3)n2C)n(CC)c1=O [Istradefylline] | 0.73 | 0.96 | 0.26 | 0.87 | 1.28 | 1.94 | 0.2 | 0.09 | -0.74
30 | COc1ccc(-c2oc3c(CC=C(C)C)c(O)cc(O)c3c(=O)c2O[C@@H]2O[C@@H](C)[C@H](O)[C@@H](O)[C@H]2O)cc1 [Baohuoside I] | 1.28 | 0.33 | 1.12 | -0.81 | 0.41 | 1.76 | -5.72 | -5.94 | -7.08
31 | N=C(N)NCCC[C@@H](NC(=O)[C@@H]1CCCN1C(=O)[C@@H]1CSSCCC(=O)N[C@@H](Cc2ccc(O)cc2)C(=O)N[C@@H](Cc2ccccc2)C(=O)N[C@@H](CCC(N)=O)C(=O)N[C@@H](CC(N)=O)C(=O)N1)C(=O)NCC(N)=O [Desmopressin (Acetate)] | -0.48 | -1.13 | -0.49 | 0.2 | -1.1 | -0.51 | 0.16 | -0.21 | -0.41
32 | Clc1ccc(CCCOCCCN2CCCCC2)cc1 [Pitolisant (hydrochloride)] | -0.07 | -0.06 | -0.26 | 0.32 | -0.29 | 0.61 | 0.75 | -0.69 | -0.12
33 | CCCC1O[C@@H]2C[C@H]3[C@@H]4CCC5=CC(=O)C=C[C@]5(C)[C@H]4[C@@H](O)C[C@]3(C)[C@]2(C(=O)CO)O1 (stereo not given in full) [Budesonide] | -0.74 | 1.17 | 0.71 | -0.56 | 1.09 | 1.45 | -0.53 | -0.12 | -0.2
34 | OCCOCCN1CCN(C(c2ccccc2)c2ccc(Cl)cc2)CC1 (stereo not given) [Hydroxyzine (dihydrochloride)] | 0.33 | -1.21 | -1.4 | 0.51 | 0.11 | 0.41 | 0.45 | -0.69 | 0.24
35 | CN(C)CCCN1c2ccccc2Sc2ccc(Cl)cc21 [Chlorpromazine (hydrochloride)] | 0.03 | -0.04 | 0.81 | 0.64 | 0.1 | 1.27 | 0.58 | -1.09 | 3.4

An excerpt from above in order of molecular weight, ascending:
Row | Compound | phospho-S6 immunofluorescence (z-score) [1] | phospho-S6 immunofluorescence (z-score) [2] | phospho-S6 immunofluorescence (z-score) [3] | phospho-S6 immunofluorescence (z-score) [4] | phospho-S6 immunofluorescence (z-score) [5] | phospho-S6 immunofluorescence (z-score) [6] | phospho-S6 immunofluorescence (z-score) [7] | phospho-S6 immunofluorescence (z-score) [8] | phospho-S6 immunofluorescence (z-score) [9]
20 | CC(C)NCC(O)c1ccc(O)c(O)c1 (stereo not given) [Isoprenaline (hydrochloride)] | 0.91 | 2.52 | 1.15 | 0.47 | 2.64 | 1.48 | 0.63 | 2.74 | 1.65
17 | CN1CCc2c(c3ccccc3n2Cc2ccccc2)C1 [Mebhydrolin (napadisylate)] | 0.08 | 0.71 | 0.16 | 0.78 | 0.36 | 0.09 | -0.29 | -1.06 | 0.64
1 | CC(NCCc1ccc(O)cc1)C(O)c1ccc(O)cc1 (stereo not given) [Ritodrine (hydrochloride)] | -0.25 | 0.64 | 0.55 | -0.13 | 0.72 | 0.18 | -0.01 | 1.26 | 0.06
32 | Clc1ccc(CCCOCCCN2CCCCC2)cc1 [Pitolisant (hydrochloride)] | -0.07 | -0.06 | -0.26 | 0.32 | -0.29 | 0.61 | 0.75 | -0.69 | -0.12
27 | COc1ccc(CCN2CCN(CCCc3ccccc3)CC2)cc1OC [SA4503 (dihydrochloride)] | -0.53 | -0.23 | -0.24 | -0.16 | 0.52 | 0.2 | 0.13 | -0.13 | -0.47
29 | CCn1c(=O)c2c(nc(/C=C/c3ccc(OC)c(OC)c3)n2C)n(CC)c1=O [Istradefylline] | 0.73 | 0.96 | 0.26 | 0.87 | 1.28 | 1.94 | 0.2 | 0.09 | -0.74
19 | O=C1O[C@]2(CC[C@H](C(=O)Nc3ccn(-c4ccccc4F)n3)CC2)c2cnccc21 | -0.22 | -0.1 | 0.06 | 0.1 | -0.18 | 0 | 0.73 | -0.47 | 0.3
2 | CC(C)(Cc1ccc2ccccc2c1)NC[C@@H](O)COc1cccc(Cl)c1C#N | -0.5 | -0.11 | -0.99 | -2.19 | -5.25 | -1.49 | -3.37 | -8.76 | -10.1
8 | Cc1noc(-c2ccc(-c3ccc(CC(=O)O)cc3)cc2)c1NC(=O)O[C@H](C)c1ccccc1 | 1.49 | 1.84 | 0.67 | 1.26 | 1.24 | 0.68 | 0.62 | 1.57 | 0.63
31 | N=C(N)NCCC[C@@H](NC(=O)[C@@H]1CCCN1C(=O)[C@@H]1CSSCCC(=O)N[C@@H](Cc2ccc(O)cc2)C(=O)N[C@@H](Cc2ccccc2)C(=O)N[C@@H](CCC(N)=O)C(=O)N[C@@H](CC(N)=O)C(=O)N1)C(=O)NCC(N)=O [Desmopressin (Acetate)] | -0.48 | -1.13 | -0.49 | 0.2 | -1.1 | -0.51 | 0.16 | -0.21 | -0.41
